Experimental findings from publication PMC11982498 (Redox Biology, 2025) are described below.

SMILES strings stand for the structures.

The test system of experiment [1] is BAX gene transcription in brain of APP/PS1 mice. Briefly: Real-time RT-PCR of mice brain, BAX. Type of experiment: in vivo. To be noted: 10 mg/kg. As to the method:
(§1) Five months old male APP/PS1 mice, weighing 25–33 g, were purchased from Guangdong Medical Laboratory Animal Center and housed in the Laboratory Animal Center of Sun Yat-sen University (Guangzhou, China) for experimentation. […] The mice were housed in a specific pathogen-free environment with a controlled temperature of 22 ± 1 °C and a 12-h dark/light cycle. The mice were fed with a standard diet, and 30 mice were randomly divided into 6 groups (N = 5). […] Behavioral experiments were then conducted, and tissue specimens were collected for biochemical analysis.
(§2) ^a -∆∆Ct = -[(Ct value of genes in treated sample - Ct value of genes in control) - (Ct value of β-actin in treated sample - Ct value of β-actin in control)]. ^b F: The relative expression fold.
(§3) Following sample homogenization, chloroform was added, and the solution was allowed to have phase separation into an upper aqueous layer (containing RNA), an interphase, and a lower organic layer (containing DNA and proteins). RNA was precipitated from the aqueous phase using isopropanol, while DNA was precipitated from the aqueous-organic interphase using ethanol.
(§4) Quantitative real-time polymerase chain reaction (qRT-PCR) was performed using the 2× RealStar SYBR Mixture (GenStar, Cat# A301-10, Guangzhou, China) on a LightCycler 480 II real-time PCR system (Roche, USA). Data were analyzed using the 2^−ΔΔCt method. […]
(Quantitative PCR measures a nucleic acid by following its amplification.)

Experiment [2] concerns BCL-2 gene transcription in brain of APP/PS1 mice. The experiment is described as follows: Real-time RT-PCR of mice brain, BCL-2. Type of experiment: in vivo. Conditions: 10 mg/kg. On the procedure: as §1, §2, §3, §4

For `COc1cc2c(cc1OC)C(=O)C(CC1CCN(Cc3ccccc3)CC1)C2` (centres unmarked) [Donepezil, donepezil, reference compound], in experiment [1], the “-∆∆Ct, BAX” value is -0.07. The “-∆∆Ct, BCL-2” value in experiment [2] is 0.26.
